According to US20150191543A1 (University of California, published 2015):
These are yes or no findings as the source states them, for the method shown. Some results given as binding are weak or reduced against the parent protein; the word gives no strength.

Sequences of proteins named here, by UniProt entry; tags and fusion partners are left off. A change or cut given only in a name is not applied to a line headed by its entry. Residues count along the entry.
UniProt P10300, residues 22-213: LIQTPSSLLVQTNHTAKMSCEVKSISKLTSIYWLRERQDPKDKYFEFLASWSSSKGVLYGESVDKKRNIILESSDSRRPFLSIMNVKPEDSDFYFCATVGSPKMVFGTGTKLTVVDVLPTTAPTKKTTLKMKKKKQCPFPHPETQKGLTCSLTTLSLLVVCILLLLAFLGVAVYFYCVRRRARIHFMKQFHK
UniProt P01731: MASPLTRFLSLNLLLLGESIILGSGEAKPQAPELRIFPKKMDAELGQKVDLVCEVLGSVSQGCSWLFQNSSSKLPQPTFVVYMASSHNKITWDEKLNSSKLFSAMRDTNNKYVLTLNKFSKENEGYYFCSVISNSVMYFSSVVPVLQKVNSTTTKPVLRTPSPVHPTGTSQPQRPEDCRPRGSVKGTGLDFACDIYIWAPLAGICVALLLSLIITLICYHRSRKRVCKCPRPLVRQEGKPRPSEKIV

Key:
[1] = target: mouse CD8β (Lyt3) (mouse) (UniProt P10300); test: flow cytometry on cell lines
[2] = target: mouse CD8β (Lyt3) (mouse) (UniProt P10300); test: flow cytometry on BW58 cells (Lyt2.2+, Lyt3+), detection with goat anti-mouse IgG2a-PE
[3] = target: mouse CD8β (Lyt3) (mouse) (UniProt P10300); test: flow cytometry on TK-1 cells (Lyt2.1+, Lyt3+), detection with goat anti-mouse IgG2a-PE
[4] = target: mouse CD8β (Lyt3) (mouse) (UniProt P10300); test: flow cytometry on BW58 cells (reduced compared with the other two minibodies) and on TK-1 cells
[5] = target: T1, mouse CD8α, Lyt2.2 allele (mouse, UniProt P01731 28-247); test: flow cytometry on BW58 cells
T1 construct: On the cells it is paired with CD8β (BW58 is Lyt2.2+, Lyt3+); also called CD8a Lyt2.2; CD8-Lyt2.2

[6] = target: T1, mouse CD8α, Lyt2.2 allele; test: flow cytometry on cell lines
[7] = target: T1, mouse CD8α, Lyt2.2 allele; test: figure legend on epitope specificity
[8] = target: T1, mouse CD8α, Lyt2.2 allele; test: flow cytometry, FITC-2.43 minibody on primary cells of B/6 mice
[9] = target: T1, mouse CD8α, Lyt2.2 allele; test: flow cytometry on BW58 cells (Lyt2.2+), detection with goat anti-mouse IgG2a-PE
[10] = target: T1, mouse CD8α, Lyt2.2 allele; test: flow cytometry on primary cells of B/6 (Lyt2.2+) mice, FITC-2.43 minibody with PE-anti-CD4
[11] = target: T1, mouse CD8α, Lyt2.2 allele; test: flow cytometry, FITC-2.43 minibody on primary cells of B/6 mice, compared with a commercial FITC-anti-CD8 antibody
[12] = target: T1, mouse CD8α, Lyt2.2 allele; test: flow cytometry on BW58 cells (Lyt2.2+), detection with anti-mouse IgG2a-PE; control: secondary antibody only [left panel BW58]

Measured: binding

B1: anti-mCD8 YTS 156 minibody (protein)
scFv: EVKLQESGPSLVQPSQTLSLTCSVSGFSLISDSVHWVRQPPGKGLEWMGGIWADGSTDYNSALKSRLSISRDTSKSQGFLKMNSLQTDDTAIYFCTSNRESYYFDYWGQGVMVTVSSGSTSGGGSGGGSGGGGSSDIQMTQSPASLSASLGDKVTITCQASQNIDKYIAWYQQKPGKAPRQLIHYTSTLVSGTPSRFSGSGSGRDYSFSISSVESEDIASYYCLQYDTLYTFGAGTKLELKLEPRGPTIKPCPPCKCPAPNLLGGPGSVRAPQVYVLPPPEEEMTKKQVTLTCMVTDFMPEDIYVEWTNNGKTELNYKNTEPVLDSDGSYFMYSKLRVEKKNWVERNSYSCSVVHEGLHNYHTTKSFSRTPGKAAAAGHLPETGAGHHHHHHAAA
binds: [1] | [2] | [3] | [4]

B2: anti-mCD8 2.43 minibody (other)
scFv: EVQLVESGGGLVQPGRSLKLSCAASGFTFSNYYMAWVRQAPTKGLEWVAYINTGGGTTYYRDSVKGRFTISRDDAKSTLYLQMDSLRSEDTATYYCTTAIGYYFDYWGQGVMVTVSSGSTSGGGSGGGSGGGGSSDIQLTQSPASLSASLGETVSIECLASEDIYSYLAWYQQKPGKSPQVLIYAANRLQDGVPSRFSGSGSGTQYSLKISGMQPEDEGDYFCLQGSKFPYTFGAGTKLELKLEPRGPTIKPCPPCKCPAPNLLGGPGSVRAPQVYVLPPPEEEMTKKQVTLTCMVTDFMPEDIYVEWTNNGKTELNYKNTEPVLDSDGSYFMYSKLRVEKKNWVERNSYSCSVVHEGLHNYHTTKSFSRTPGKAAAAGHLPETGAGHHHHHHAAA
notes: Minibody (scFv-hinge-CH3 homodimer, about 80 kDa; 19% higher multimers); Some assays used the NOTA/64Cu-labelled or FITC-labelled protein
not listed: [1] | [2] | [3] | [4]
binds: all other assays above
